Reference: the supplement of paper PMC10849652
This is one part of the list.

Protein sequences, listed by entry. Tags and fused reporters are not part of them. Lines headed by an entry give the natural chain unless they say otherwise; changes in a name come on top.
UniProt Q9HC62: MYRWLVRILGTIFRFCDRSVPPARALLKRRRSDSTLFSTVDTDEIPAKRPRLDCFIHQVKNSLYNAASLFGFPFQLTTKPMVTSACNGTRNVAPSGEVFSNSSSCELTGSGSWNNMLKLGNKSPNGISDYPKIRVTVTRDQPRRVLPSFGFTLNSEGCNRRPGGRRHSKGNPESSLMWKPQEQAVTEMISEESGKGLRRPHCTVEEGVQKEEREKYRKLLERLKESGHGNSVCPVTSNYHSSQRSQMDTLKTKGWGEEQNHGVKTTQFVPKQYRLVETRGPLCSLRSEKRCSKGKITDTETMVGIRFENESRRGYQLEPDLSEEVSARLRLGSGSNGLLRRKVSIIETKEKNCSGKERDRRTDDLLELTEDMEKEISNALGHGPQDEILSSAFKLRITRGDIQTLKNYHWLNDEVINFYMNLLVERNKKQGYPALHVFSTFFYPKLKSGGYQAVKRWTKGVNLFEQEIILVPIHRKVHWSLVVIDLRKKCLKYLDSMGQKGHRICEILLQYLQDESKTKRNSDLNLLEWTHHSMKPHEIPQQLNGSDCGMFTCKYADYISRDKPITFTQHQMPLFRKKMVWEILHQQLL
UniProt Q9NRG7: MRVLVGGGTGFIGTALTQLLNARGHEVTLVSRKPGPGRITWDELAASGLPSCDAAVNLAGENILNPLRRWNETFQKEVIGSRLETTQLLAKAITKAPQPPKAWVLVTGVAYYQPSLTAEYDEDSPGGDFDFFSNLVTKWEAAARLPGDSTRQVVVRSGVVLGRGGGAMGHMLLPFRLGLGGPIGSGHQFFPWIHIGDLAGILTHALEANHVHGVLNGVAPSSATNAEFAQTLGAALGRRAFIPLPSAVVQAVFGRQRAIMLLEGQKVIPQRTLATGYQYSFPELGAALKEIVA
UniProt Q9NZJ4: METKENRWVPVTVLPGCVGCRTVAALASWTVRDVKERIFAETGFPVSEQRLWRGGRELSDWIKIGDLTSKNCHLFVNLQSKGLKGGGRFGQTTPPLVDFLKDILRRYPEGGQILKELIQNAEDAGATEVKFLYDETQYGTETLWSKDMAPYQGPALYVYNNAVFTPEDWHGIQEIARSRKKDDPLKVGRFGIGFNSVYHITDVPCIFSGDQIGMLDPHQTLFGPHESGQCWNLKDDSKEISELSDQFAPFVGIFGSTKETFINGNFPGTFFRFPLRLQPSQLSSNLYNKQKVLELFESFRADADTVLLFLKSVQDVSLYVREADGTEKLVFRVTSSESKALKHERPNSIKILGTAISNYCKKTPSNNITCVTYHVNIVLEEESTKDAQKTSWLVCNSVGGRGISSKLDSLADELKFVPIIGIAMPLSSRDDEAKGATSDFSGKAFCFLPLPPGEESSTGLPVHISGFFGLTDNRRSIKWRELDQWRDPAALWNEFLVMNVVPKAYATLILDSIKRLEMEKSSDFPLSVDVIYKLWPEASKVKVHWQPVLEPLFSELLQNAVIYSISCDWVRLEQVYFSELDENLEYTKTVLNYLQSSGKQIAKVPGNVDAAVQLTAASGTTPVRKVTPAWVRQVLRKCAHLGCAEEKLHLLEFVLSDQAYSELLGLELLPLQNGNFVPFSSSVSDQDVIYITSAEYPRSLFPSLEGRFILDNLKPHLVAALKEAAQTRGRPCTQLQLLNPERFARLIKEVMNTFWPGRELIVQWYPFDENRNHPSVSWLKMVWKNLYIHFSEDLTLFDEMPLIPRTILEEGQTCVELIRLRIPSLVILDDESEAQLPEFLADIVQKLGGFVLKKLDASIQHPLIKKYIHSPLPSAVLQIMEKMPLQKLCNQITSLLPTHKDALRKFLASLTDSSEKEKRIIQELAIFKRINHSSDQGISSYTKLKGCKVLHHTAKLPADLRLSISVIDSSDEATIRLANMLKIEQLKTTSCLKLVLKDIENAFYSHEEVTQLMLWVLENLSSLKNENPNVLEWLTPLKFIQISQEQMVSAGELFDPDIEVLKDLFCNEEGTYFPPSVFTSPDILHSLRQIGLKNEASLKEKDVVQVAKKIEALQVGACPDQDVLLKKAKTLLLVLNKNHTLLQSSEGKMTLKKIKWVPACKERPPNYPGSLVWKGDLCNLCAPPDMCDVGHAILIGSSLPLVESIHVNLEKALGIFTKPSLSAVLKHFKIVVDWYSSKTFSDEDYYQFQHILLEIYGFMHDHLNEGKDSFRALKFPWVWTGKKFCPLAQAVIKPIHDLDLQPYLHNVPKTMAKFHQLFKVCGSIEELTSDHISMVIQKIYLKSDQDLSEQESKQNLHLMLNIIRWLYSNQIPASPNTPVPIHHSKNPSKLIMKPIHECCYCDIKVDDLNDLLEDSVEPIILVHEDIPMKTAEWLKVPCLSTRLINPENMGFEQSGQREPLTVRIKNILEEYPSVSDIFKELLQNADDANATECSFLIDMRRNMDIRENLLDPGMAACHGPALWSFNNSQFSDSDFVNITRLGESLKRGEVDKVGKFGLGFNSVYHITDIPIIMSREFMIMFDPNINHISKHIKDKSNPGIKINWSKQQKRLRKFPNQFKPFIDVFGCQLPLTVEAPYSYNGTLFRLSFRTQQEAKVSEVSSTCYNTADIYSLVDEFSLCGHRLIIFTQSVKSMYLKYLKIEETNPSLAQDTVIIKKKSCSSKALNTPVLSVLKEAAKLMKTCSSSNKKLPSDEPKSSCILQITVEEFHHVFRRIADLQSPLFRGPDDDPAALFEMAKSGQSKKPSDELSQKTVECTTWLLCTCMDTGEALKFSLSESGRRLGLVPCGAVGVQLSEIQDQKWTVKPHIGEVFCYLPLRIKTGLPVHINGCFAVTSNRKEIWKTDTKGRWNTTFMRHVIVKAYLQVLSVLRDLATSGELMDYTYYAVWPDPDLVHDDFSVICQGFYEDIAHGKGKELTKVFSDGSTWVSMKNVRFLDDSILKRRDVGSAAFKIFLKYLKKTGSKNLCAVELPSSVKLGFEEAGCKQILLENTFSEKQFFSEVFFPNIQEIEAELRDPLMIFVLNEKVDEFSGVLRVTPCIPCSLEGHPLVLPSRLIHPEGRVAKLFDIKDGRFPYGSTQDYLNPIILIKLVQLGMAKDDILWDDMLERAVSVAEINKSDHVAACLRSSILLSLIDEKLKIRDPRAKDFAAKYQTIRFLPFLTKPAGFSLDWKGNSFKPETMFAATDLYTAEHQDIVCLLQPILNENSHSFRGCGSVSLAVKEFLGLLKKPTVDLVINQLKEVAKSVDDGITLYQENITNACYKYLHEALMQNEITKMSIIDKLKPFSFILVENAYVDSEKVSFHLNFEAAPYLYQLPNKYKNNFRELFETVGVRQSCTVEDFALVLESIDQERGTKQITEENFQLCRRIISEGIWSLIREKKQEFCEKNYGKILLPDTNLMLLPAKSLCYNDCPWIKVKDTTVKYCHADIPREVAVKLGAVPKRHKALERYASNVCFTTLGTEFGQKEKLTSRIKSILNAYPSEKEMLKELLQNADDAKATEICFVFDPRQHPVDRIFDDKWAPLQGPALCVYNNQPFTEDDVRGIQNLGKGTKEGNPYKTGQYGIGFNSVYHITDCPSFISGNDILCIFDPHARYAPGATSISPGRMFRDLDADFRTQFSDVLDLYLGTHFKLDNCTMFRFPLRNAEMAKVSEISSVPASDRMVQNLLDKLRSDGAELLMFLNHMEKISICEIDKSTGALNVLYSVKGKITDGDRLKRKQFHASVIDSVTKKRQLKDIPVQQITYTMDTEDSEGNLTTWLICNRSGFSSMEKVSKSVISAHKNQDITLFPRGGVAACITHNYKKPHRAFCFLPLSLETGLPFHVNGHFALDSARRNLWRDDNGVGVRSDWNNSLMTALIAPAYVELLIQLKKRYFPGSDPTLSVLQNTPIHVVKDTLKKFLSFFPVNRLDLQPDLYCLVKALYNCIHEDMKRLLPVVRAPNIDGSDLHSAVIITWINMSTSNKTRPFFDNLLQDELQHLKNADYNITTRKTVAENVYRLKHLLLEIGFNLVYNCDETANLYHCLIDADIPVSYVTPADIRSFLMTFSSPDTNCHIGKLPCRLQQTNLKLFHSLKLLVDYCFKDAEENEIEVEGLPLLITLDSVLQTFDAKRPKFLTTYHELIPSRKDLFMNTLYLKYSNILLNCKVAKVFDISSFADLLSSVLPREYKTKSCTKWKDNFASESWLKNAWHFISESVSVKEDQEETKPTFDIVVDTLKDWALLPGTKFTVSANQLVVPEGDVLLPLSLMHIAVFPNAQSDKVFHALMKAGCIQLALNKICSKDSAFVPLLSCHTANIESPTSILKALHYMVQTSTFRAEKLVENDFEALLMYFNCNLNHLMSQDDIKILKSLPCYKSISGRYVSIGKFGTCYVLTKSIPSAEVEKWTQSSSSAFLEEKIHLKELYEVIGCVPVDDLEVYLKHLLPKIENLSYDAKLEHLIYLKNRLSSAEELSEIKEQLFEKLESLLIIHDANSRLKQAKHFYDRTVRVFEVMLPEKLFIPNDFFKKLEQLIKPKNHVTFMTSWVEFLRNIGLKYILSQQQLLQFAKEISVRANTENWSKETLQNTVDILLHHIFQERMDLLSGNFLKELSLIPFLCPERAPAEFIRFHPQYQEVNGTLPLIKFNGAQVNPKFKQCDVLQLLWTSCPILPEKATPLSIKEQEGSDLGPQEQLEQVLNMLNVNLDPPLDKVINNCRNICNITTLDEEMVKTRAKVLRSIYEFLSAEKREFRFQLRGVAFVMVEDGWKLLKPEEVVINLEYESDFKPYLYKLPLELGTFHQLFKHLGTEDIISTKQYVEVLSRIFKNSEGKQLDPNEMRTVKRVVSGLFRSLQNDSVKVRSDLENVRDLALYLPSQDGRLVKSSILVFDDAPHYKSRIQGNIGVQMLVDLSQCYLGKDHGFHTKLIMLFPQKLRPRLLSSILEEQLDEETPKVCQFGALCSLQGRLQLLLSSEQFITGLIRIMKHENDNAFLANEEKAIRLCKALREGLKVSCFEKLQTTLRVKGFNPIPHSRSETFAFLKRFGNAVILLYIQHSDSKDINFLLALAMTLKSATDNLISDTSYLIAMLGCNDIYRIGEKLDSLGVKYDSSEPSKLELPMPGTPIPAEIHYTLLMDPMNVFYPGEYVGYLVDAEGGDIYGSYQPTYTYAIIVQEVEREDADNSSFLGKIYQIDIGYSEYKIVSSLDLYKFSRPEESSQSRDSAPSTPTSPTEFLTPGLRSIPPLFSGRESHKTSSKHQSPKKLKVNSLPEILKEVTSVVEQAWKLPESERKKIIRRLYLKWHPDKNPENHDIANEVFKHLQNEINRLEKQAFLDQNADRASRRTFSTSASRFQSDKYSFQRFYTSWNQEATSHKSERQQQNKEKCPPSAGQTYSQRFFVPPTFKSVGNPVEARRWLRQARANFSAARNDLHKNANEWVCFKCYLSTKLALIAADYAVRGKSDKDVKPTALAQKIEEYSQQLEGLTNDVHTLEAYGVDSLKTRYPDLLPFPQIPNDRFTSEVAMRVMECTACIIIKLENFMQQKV
UniProt Q99470: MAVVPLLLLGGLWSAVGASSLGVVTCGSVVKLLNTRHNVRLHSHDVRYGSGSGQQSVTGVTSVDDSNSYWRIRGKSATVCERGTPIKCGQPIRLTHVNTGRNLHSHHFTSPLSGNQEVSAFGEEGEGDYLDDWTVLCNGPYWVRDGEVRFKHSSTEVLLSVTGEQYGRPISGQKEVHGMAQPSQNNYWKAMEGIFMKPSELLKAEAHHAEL
UniProt O75056, whole entry, looked up: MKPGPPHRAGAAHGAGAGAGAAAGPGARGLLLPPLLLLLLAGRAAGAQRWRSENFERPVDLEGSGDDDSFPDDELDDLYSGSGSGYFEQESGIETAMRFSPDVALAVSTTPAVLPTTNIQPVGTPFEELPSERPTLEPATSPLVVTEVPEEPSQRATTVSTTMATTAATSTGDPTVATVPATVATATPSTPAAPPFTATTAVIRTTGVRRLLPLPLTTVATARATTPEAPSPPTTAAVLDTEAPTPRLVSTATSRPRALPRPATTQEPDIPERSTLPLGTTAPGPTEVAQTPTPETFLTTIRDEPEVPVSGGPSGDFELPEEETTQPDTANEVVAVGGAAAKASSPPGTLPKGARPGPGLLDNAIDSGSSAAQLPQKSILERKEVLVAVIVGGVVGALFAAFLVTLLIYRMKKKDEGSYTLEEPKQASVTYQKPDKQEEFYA
UniProt Q5VUM1: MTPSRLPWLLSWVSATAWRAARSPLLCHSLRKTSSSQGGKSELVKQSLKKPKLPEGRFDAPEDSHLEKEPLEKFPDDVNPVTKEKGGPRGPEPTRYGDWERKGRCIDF
UniProt Q9UIL1: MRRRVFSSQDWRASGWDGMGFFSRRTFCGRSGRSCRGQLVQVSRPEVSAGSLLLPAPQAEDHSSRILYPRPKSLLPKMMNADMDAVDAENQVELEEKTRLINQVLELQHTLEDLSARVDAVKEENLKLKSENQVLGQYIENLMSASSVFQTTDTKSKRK
UniProt Q9HAJ7: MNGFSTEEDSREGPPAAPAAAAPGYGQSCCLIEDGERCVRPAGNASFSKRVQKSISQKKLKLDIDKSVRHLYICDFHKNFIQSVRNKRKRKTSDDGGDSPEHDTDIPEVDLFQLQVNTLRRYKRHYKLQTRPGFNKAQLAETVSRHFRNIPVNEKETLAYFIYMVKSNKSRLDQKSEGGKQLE

Each target was assayed with Cc1cn(-c2cc(NC(=O)c3ccc(C)c(Nc4nccc(-c5cccnc5)n4)c3)cc(C(F)(F)F)c2)cn1 [nilotinib] (assay: log2 fold change, soluble protein after heating vs DMSO (PISA); higher = thermal stabilisation; K562 lysate, 10 uM; active = over 0.2 and 3.5 SD of the protein, either way, in both replicates (recomputed)).
Summary of the method: (§1)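 To prepare the extract, K562 pellets were dounce-homogenised in PBS pH 7.4 with 1 mM MgCl2, giving crude material at 1 mg/mL protein. This was treated with 10 μM compound for 30 min, then heated in aliquots for 3 min over 48°C-58°C before pooling and addition of NP-40 to 0.5% at 4°C. Centrifugation at 21,000xg for 90 min left soluble protein in the supernatant, which TMTpro 16plex LC-MS/MS quantified with equalised channel sums. Results are log-two fold changes in thermal stability compared with solvent controls, from duplicates.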

Question: With SCAI isoform 2 (UniProt Q8N9R8) as the target, how does the log2 fold change read?
Answer: inactive: 0.017

Question: Which log2 fold change does the source give for SAV1 (UniProt Q9H4B6) here?
Answer: inactive: -0.06

Question: For SENP2 (UniProt Q9HC62), which log2 fold change is on record?
Answer: inactive: 0.031

Question: SALL1 (UniProt Q9NSC2) was tested. Which log2 fold change did it give?
Answer: inactive: -0.11

Question: Which log2 fold change does the source give for SDR39U1 (UniProt Q9NRG7) here?
Answer: inactive: 0.024

Question: With SACS (UniProt Q9NZJ4) as the target, how does the log2 fold change read?
Answer: inactive: 0.058

Question: SDF2 (UniProt Q99470) was tested. Which log2 fold change did it give?
Answer: inactive: 0.157

Question: How did the log2 fold change turn out when SDHB, A0A087WXX8 was run?
Answer: inactive: -0.034

Question: With SARM1 (UniProt Q6SZW1) as the target, how does the log2 fold change read?
Answer: inactive: -0.065

The targets below were run with Cc1nc(Nc2n[nH]c3c2CN(C(=O)N[C@H](CN(C)C)c2ccccc2)C3(C)C)c2sccc2n1 in the same assay as above.
Summary of the method: as §1

Question: Which log2 fold change does the source give for SCAI isoform 2 (UniProt Q8N9R8) here?
Answer: inactive: -0.214

Question: How did the log2 fold change turn out when SAV1 (UniProt Q9H4B6) was run?
Answer: inactive: 0.054

Question: SENP2 (UniProt Q9HC62) was tested. Which log2 fold change did it give?
Answer: inactive: 0.009

Question: For SALL1 (UniProt Q9NSC2), which log2 fold change is on record?
Answer: inactive: -0.02

Question: With SDR39U1 (UniProt Q9NRG7) as the target, how does the log2 fold change read?
Answer: inactive: -0.126

Question: With SACS (UniProt Q9NZJ4) as the target, how does the log2 fold change read?
Answer: inactive: 0.042

Question: SDF2 (UniProt Q99470) was tested. Which log2 fold change did it give?
Answer: inactive: 0.054

Question: How did the log2 fold change turn out when SDHB, A0A087WXX8 was run?
Answer: inactive: -0.109

Question: For SARM1 (UniProt Q6SZW1), which log2 fold change is on record?
Answer: inactive: -0.033

These targets were tested with Cc1nc(Nc2ncc(C(=O)Nc3c(C)cccc3Cl)s2)cc(N2CCN(CCO)CC2)n1 [dasatinib] in the same assay as above.
Summary of the method: as §1

Question: With SEMA4G isoform 2 (UniProt Q9NTN9) as the target, how does the log2 fold change read?
Answer: inactive: 0.006

Question: SENP3 (UniProt Q9H4L4) was tested. Which log2 fold change did it give?
Answer: inactive: -0.016

Question: How did the log2 fold change turn out when SAMD4A (UniProt Q9UPU9) was run?
Answer: inactive: -0.228

Question: With SAP130 isoform 3 (UniProt Q9H0E3) as the target, how does the log2 fold change read?
Answer: inactive: 0.014

Question: For SDC3 (UniProt O75056), which log2 fold change is on record?
Answer: inactive: 0.119

Question: For SELENOI (UniProt Q9C0D9), which log2 fold change is on record?
Answer: inactive: -0.093

Question: How did the log2 fold change turn out when SEC16A isoform 3 (UniProt O15027) was run?
Answer: inactive: -0.026

Question: Which log2 fold change does the source give for SELENON (UniProt Q9NZV5) here?
Answer: inactive: -0.21

Question: SAE1 (UniProt M0R286) was tested. Which log2 fold change did it give?
Answer: inactive: 0.074

Question: With SDHAF4 (UniProt Q5VUM1) as the target, how does the log2 fold change read?
Answer: inactive: 0.023

Question: For SCOC (UniProt Q9UIL1), which log2 fold change is on record?
Answer: inactive: -0.125

Each target was assayed with Cc1ncc(-c2ccnc(Nc3ccc(S(C)(=O)=O)cc3)n2)n1C(C)C in the same assay as above.
Summary of the method: as §1

Question: With SCAI isoform 2 (UniProt Q8N9R8) as the target, how does the log2 fold change read?
Answer: inactive: 0.053

Question: With SAV1 (UniProt Q9H4B6) as the target, how does the log2 fold change read?
Answer: inactive: 0.044

Question: For SENP2 (UniProt Q9HC62), which log2 fold change is on record?
Answer: inactive: 0.249

Question: With SALL1 (UniProt Q9NSC2) as the target, how does the log2 fold change read?
Answer: inactive: 0.025

Question: For SDR39U1 (UniProt Q9NRG7), which log2 fold change is on record?
Answer: inactive: -0.065

Question: SACS (UniProt Q9NZJ4) was tested. Which log2 fold change did it give?
Answer: inactive: 0.007

Question: SDF2 (UniProt Q99470) was tested. Which log2 fold change did it give?
Answer: inactive: 0.202

Question: How did the log2 fold change turn out when SDHB, A0A087WXX8 was run?
Answer: inactive: 0.022

Question: For SARM1 (UniProt Q6SZW1), which log2 fold change is on record?
Answer: inactive: -0.042

The targets below were run with Cn1cc(-c2ccc3c(c2)CCN3C(=O)Cc2cccc(C(F)(F)F)c2)c2c(N)ncnc21 in the same assay as above.
Summary of the method: as §1

Question: Which log2 fold change does the source give for SEMA4G isoform 2 (UniProt Q9NTN9) here?
Answer: inactive: 0.235

Question: With SENP3 (UniProt Q9H4L4) as the target, how does the log2 fold change read?
Answer: inactive: 0.181

Question: Which log2 fold change does the source give for SAMD4A (UniProt Q9UPU9) here?
Answer: inactive: -0.005

Question: With SAP130 isoform 3 (UniProt Q9H0E3) as the target, how does the log2 fold change read?
Answer: inactive: 0.014

Question: SDC3 (UniProt O75056) was tested. Which log2 fold change did it give?
Answer: inactive: -0.073

Question: For SELENOI (UniProt Q9C0D9), which log2 fold change is on record?
Answer: inactive: -0.085

Question: How did the log2 fold change turn out when SEC16A isoform 3 (UniProt O15027) was run?
Answer: inactive: -0.039

Question: How did the log2 fold change turn out when SELENON (UniProt Q9NZV5) was run?
Answer: inactive: 0.073

Question: With SAE1 (UniProt M0R286) as the target, how does the log2 fold change read?
Answer: inactive: 0.107

Question: Which log2 fold change does the source give for SDHAF4 (UniProt Q5VUM1) here?
Answer: inactive: -0.017

Question: For SCOC (UniProt Q9UIL1), which log2 fold change is on record?
Answer: inactive: 0.032

Each target was assayed with Cn1cc(CNCC2CCN(c3ncc(C(=O)NO)cn3)CC2)c2ccccc21 [quisinostat] in the same assay as above.
Summary of the method: as §1

Question: For SEMA4G isoform 2 (UniProt Q9NTN9), which log2 fold change is on record?
Answer: inactive: 0.074

Question: With SENP3 (UniProt Q9H4L4) as the target, how does the log2 fold change read?
Answer: inactive: 0.075

Question: How did the log2 fold change turn out when SAP30L (UniProt Q9HAJ7) was run?
Answer: inactive: 0.075

Question: Which log2 fold change does the source give for SAMD4A (UniProt Q9UPU9) here?
Answer: inactive: -0.069

Question: SAP130 isoform 3 (UniProt Q9H0E3) was tested. Which log2 fold change did it give?
Answer: inactive: -0.144

Question: SDC3 (UniProt O75056) was tested. Which log2 fold change did it give?
Answer: inactive: -0.1

Question: With SELENOI (UniProt Q9C0D9) as the target, how does the log2 fold change read?
Answer: inactive: 0.055

Question: Which log2 fold change does the source give for SELENOM (UniProt Q8WWX9) here?
Answer: inactive: 0.008

Question: How did the log2 fold change turn out when SDF2 (UniProt Q99470) was run?
Answer: inactive: -0.13

Question: For SC5D (UniProt O75845), which log2 fold change is on record?
Answer: inactive: -0.127

Question: Which log2 fold change does the source give for SELENOW (UniProt P63302) here?
Answer: inactive: 0.128

Question: With SCAND1 (UniProt P57086) as the target, how does the log2 fold change read?
Answer: inactive: 0.152

Question: How did the log2 fold change turn out when SDCCAG8 (UniProt S4R323) was run?
Answer: inactive: 0.079

Question: With SDHAF4 (UniProt Q5VUM1) as the target, how does the log2 fold change read?
Answer: inactive: 0.098

Question: SCOC (UniProt Q9UIL1) was tested. Which log2 fold change did it give?
Answer: inactive: -0.02

Each target was assayed with Cn1cncc1[C@@](N)(c1ccc(Cl)cc1)c1ccc2c(c1)c(-c1cccc(Cl)c1)cc(=O)n2C [tipifarnib] in the same assay as above.
Summary of the method: as §1

Question: How did the log2 fold change turn out when SCAI isoform 2 (UniProt Q8N9R8) was run?
Answer: inactive: 0.36

Question: For SAV1 (UniProt Q9H4B6), which log2 fold change is on record?
Answer: inactive: 0.054

Question: Which log2 fold change does the source give for SENP2 (UniProt Q9HC62) here?
Answer: inactive: -0.257

Question: How did the log2 fold change turn out when SALL1 (UniProt Q9NSC2) was run?
Answer: inactive: 0.173

Question: With SDR39U1 (UniProt Q9NRG7) as the target, how does the log2 fold change read?
Answer: inactive: 0

Question: How did the log2 fold change turn out when SACS (UniProt Q9NZJ4) was run?
Answer: inactive: 0.014

Question: For SDF2 (UniProt Q99470), which log2 fold change is on record?
Answer: inactive: -0.156

Question: Which log2 fold change does the source give for SDHB, A0A087WXX8 here?
Answer: inactive: -0.255

Question: With SARM1 (UniProt Q6SZW1) as the target, how does the log2 fold change read?
Answer: inactive: -0.148
